Results taken from US9206222 (dated 2015).

Assay: general procedure: Fmoc solid-phase peptide synthesis; 2-chlorotrityl chloride resin (1.55 mmol/g); HBTU/DIEA
Conditions: whole synthesis

Question: Which results are given for IsoGalanin?
Answer: crude HPLC purity (214 nm): 85%; crude mass (scale 0.1 mmol): 180 mg; crude yield (scale 0.1 mmol): 85%
